Results are given in words; binding and its absence hold for the method and conditions named. Some binding calls cover weakened binding; strength is not graded here.

Protein sequences, listed by entry. Tags and fused reporters are not part of them.
UniProt P61169: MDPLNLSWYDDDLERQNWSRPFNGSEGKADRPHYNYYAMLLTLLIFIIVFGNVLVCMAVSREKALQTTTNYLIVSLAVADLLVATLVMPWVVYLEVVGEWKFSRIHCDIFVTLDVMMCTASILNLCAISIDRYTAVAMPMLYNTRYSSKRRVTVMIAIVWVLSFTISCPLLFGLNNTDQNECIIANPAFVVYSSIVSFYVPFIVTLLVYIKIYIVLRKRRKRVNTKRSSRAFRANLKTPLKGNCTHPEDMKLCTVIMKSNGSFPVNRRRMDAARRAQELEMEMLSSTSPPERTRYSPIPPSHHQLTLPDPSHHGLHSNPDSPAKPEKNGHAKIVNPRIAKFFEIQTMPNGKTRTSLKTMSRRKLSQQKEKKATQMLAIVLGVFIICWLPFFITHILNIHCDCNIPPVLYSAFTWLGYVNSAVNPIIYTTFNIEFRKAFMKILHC

The target of the experiment is dopamine D2 receptor (rat striatum) (rat (endogenous in striatum)) (UniProt P61169). Nature of the experiment: SDS-PAGE and Western blot of dimer and monomer bands; rat striatum, rat striatal slices, cultured rat striatal neurons or transfected HEK293T cells homogenized in RIPA buffer, 50 μg boiled 5 min in SDS sample buffer, blotted with polyclonal anti-D2; with or without amphetamine, haloperidol, quinpirole, dopamine, TAT peptides.

Take “dopamine D2 receptor (rat striatum) (from UniProt P61169 1-444)”: the binding entry is “binds”.
